Some of the results follow. Further columns of the screen follow, without active or inactive calls. Compounds called inactive in the main read-out are mostly missing here. Words in brackets tell the shape of the fitted curve; partial curves, single points and poor fits give uncertain potencies.

The experiment can be described thus: Cell signaling CRE-BLA (Fsk stim). The conditions noted are these: CHO CRE-bla reporter (cAMP response element driving beta-lactamase), forskolin EC10, beta-lactamase ratio; measured here: 460 nm blue channel. In short, it runs like this: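 AC50 values, positive or negative, reflect shifts in EC10 NKH 477-induced CRE-bla reporter activity in CHO cells. Incubation lasted 3 h at 37 °C before CCF4 substrate (2 h, room temperature) and ratiometric 460/530 nm reading.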
As to `COc1ccc(OCC(O)Cn2c(Br)nc3c2c(=O)[nH]c(=O)n3C)cc1` (stereo not drawn), the AC50 was 12.6 µM [rising, partial curve].

As to `CC1=C(C(=O)OCc2ccc3c(c2)OCO3)C(c2ccccc2)NC(=O)N1` (stereo not drawn), the AC50 is 12.6 µM [falling, partial curve].

On to `COc1cccc(Cn2c(=O)c(-c3cccs3)nc3cnc(N4CCN(C)CC4)nc32)c1`, for which the AC50 was 1.26 µM [rising, full curve].

Take `CCCn1c(SCC(=O)NCc2cccs2)nc2c1c(=O)n(C)c(=O)n2C`: the AC50 was 20 µM [rising, single point].

`CNS(=O)(=O)c1ccc(NC(=O)C(CCSC)NC(N)=O)cc1` (stereo not drawn): the AC50 was 1.58 µM [falling, single point].

As to `CCC(C)Sc1nc2c(cnn2-c2ccc(C)c(C)c2)c(=O)[nH]1` (stereo not drawn), the AC50 was 2.51 µM [rising, full curve].

For the molecule `COc1cc2c(C#N)c(N3CCCCC3)nc(N)c2c(N)n1`, the AC50 was 12.6 µM [rising, partial curve].

As to `CC(C)(C)NC(=O)NC(=O)COC(=O)c1ccco1`, the AC50 was 0.126 µM [falling, partial curve, poor fit].

Take `O=C(CSc1nnc(Cn2c(=O)sc3ccccc32)n1CCc1ccccc1)N1CCOCC1`: the AC50 was 25.1 µM [rising, single point].

As to `Cc1cccc(Nc2ncnc3nc[nH]c23)c1`, the AC50 was 1.26 µM [rising, full curve].

Regarding `O=C1C(C=NCCCn2ccnc2)=C(O)c2ccccc21`, the AC50 is 5.01 µM [falling, single point].

As to `CCOc1ccc(C(=O)CCNC(Cc2cnc[nH]2)C(=O)O)cc1` (stereo not drawn), the AC50 was 0.794 µM [falling, partial curve, poor fit].

With `COc1ccc(OC)c(NS(=O)(=O)c2ccc3c(c2)CCC(=O)N3)c1`, the AC50 was 0.0631 µM [rising, full curve, poor fit].

Regarding `CCOC(=O)c1ccccc1NC(=O)Cn1cnc2c(cnn2-c2ccc(OC)cc2)c1=O`, the half-maximal activity concentration (AC50) is 25.1 µM [falling, single point].

Turning to `CCCn1nc(C(=O)Nc2cccc(C(=O)OC)c2)c2ccccc2c1=O`, the AC50 was 10 µM [rising, partial curve].

For the molecule `COC(=O)c1ccc2c(=O)n(CCCCCC(=O)N3CCN(c4ccccc4)CC3)c(=O)[nH]c2c1`, the AC50 is 6.31 µM [falling, partial curve, poor fit].

Regarding `O=C(CC1(O)C(=O)Nc2cc(Cl)cc(Cl)c21)c1ccccc1O` (stereo not drawn), the AC50 was 3.98 µM [falling, full curve, poor fit].

Turning to `c1coc(-c2nc3ccccc3nc2-c2ccco2)c1`, the AC50 is 12.6 µM [rising, partial curve].

`Cc1cc2c3nonc3ccc2n1C`: the AC50 was 20 µM [rising, single point].

In the case of `CCCCNC(=O)C(C#N)c1nc2ccccc2nc1N1CCCC1` (stereo not drawn), the AC50 is 3.98 µM [rising, partial curve].

Consider `COc1cccc(C(=O)OCn2nnc3ccccc3c2=O)c1`, for which the AC50 is 15.8 µM [rising, single point].

In the case of `COc1cc2nc(COc3ccc(C#N)cc3)n(CC#N)c(=O)c2cc1OC`, the AC50 was 10 µM [rising, partial curve].

`CC(Oc1ccccc1)C(=O)Nc1ccc(C(N)=O)cc1` (stereo not drawn): the AC50 is 0.00501 µM [falling, full curve, poor fit].

`Clc1ccc(Cl)c2sc(N3CCOCC3)nc12`: the AC50 is 0.316 µM [rising, full curve, poor fit].

Consider `CCOCC(=O)Nc1c(C(=O)OCC)oc2ccccc12`, for which the AC50 is 6.31 µM [rising, partial curve].

In the case of `O=C(Cc1ccc(-n2cnnn2)cc1)NC12CC3CC(CC(C3)C1)C2`, the AC50 is 10 µM [rising, single point].

`Cc1csc2ncc(C(=O)NCc3ccc4c(c3)OCO4)c(=O)n12`: the AC50 is 5.01 µM [rising, partial curve].

As to `Oc1ccc(-c2nc3ncccn3c2Nc2ccc3c(c2)OCO3)cc1`, the AC50 was 0.0158 µM [falling, full curve, poor fit].

For the molecule `CCn1c2ccccc2c2cc(NC(=O)COC(=O)Cc3cn4ccsc4n3)ccc21`, the AC50 is 20 µM [rising, single point].

Consider `Nc1ccc(CCS(N)(=O)=O)cc1`, for which the AC50 is 5.01 µM [falling, single point].

As for `Clc1ccc2c(N3CCCC3)ccnc2c1`, the AC50 was 7.94 µM [falling, partial curve].

As to `Cc1nc(NCCO)c2nc(-c3ccccc3)n(CCN(C)C)c2n1`, the AC50 is 12.6 µM [rising, partial curve].

Consider `Cc1ccc(CNC(=O)c2coc(=O)c3ccccc23)o1`, for which the AC50 was 0.0251 µM [falling, full curve, poor fit].

For `CCCC[C@@H]1C[C@H]1C(NC(=O)c1ccc(C(F)(F)F)cc1)c1ccc(C(=O)OC)cc1` (stereo partly drawn), the AC50 is 12.6 µM [rising, partial curve].

Regarding `Cc1cc(C)c2[nH]c(=O)c(C(c3nnnn3C(C)(C)C)N3CCN(C(=O)c4ccco4)CC3)cc2c1` (stereo not drawn), the AC50 is 3.98 µM [rising, single point].

For `c1ccc(-c2nc(NCCCN3CCOCC3)c3ccccc3n2)cc1`, the AC50 was 10 µM [rising, single point].

For the molecule `Cc1cc(C)n2cc(CSc3nc4cc(Cl)ccc4o3)nc2n1`, the AC50 was 3.16 µM [rising, partial curve].

As to `CCNC(=O)CSc1nc2ccccc2c(=O)n1OC`, the AC50 was 5.01 µM [falling, single point].

In the case of `O=c1c(-c2ccccc2)nc2cncnc2n1Cc1ccccc1Cl`, the AC50 was 12.6 µM [rising, partial curve].

Regarding `OC(COc1cccc(OCC(O)CN2CCOCC2)c1)CN1CCOCC1` (stereo not drawn), the AC50 was 3.98 µM [rising, single point].

Take `Cc1ccc(-c2cc(C(=O)NCc3ccco3)c3ccccc3n2)o1`: the AC50 was 5.01 µM [falling, single point].

For `CCOc1ccc(S(=O)(=O)NCCC(=O)OCN2C(=O)c3ccccc3C2=O)cc1`, the half-maximal activity concentration (AC50) is 5.01 µM [falling, single point].

For the molecule `CCOC(=O)c1cc2c(ccn2-c2ccc(F)cc2)n1CC(=O)N1CCN(C(=O)c2ccco2)CC1`, the AC50 is 2 µM [rising, partial curve].
